Single values are uncertain, as repeats are few or missing.
Compound: [O-][N+](C(C1=C(C(O)=C2)NC(C(C=C3)=CC=C3Cl)C4C1C=CC4)=C2Cl)=O
Assay: melting temperature shift (compound 7 minus DMSO); higher = compound stabilises the protein
Details: 10 µM
Description: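 Thermal proteome profiling (TMT mass spectrometry) in intact DAOY medulloblastoma cells or DAOY lysates treated with 10 µM compound 7 or DMSO, heated at 10 temperatures from 40.5 to 73.8 °C for 3 min. Melting curves were fitted with the Bioconductor TPP package, and the melting point difference between compound and vehicle is reported per protein (single curve per condition).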

Amino acid sequences for entries named in this document (tags omitted). A change or cut given only in a name is not applied to a line headed by its entry.
UniProt Q9H5K3: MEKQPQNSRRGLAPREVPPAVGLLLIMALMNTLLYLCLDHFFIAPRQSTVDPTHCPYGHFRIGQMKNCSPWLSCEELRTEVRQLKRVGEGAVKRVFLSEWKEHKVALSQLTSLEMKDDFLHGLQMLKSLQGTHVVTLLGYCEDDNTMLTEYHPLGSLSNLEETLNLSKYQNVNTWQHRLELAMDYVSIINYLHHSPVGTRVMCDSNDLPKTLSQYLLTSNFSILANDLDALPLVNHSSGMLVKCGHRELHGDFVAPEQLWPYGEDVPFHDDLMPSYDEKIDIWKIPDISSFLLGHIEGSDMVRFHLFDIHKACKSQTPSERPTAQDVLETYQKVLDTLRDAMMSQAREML
UniProt Q9P2T1: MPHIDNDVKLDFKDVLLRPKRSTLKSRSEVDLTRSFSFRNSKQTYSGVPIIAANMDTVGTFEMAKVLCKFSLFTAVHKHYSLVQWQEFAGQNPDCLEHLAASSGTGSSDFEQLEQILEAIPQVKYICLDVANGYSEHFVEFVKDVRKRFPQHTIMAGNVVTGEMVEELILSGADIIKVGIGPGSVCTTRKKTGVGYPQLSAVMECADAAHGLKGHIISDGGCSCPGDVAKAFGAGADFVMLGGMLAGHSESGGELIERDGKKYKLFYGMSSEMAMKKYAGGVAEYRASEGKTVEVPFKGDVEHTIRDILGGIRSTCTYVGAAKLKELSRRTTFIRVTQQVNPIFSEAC
UniProt Q99570, whole entry: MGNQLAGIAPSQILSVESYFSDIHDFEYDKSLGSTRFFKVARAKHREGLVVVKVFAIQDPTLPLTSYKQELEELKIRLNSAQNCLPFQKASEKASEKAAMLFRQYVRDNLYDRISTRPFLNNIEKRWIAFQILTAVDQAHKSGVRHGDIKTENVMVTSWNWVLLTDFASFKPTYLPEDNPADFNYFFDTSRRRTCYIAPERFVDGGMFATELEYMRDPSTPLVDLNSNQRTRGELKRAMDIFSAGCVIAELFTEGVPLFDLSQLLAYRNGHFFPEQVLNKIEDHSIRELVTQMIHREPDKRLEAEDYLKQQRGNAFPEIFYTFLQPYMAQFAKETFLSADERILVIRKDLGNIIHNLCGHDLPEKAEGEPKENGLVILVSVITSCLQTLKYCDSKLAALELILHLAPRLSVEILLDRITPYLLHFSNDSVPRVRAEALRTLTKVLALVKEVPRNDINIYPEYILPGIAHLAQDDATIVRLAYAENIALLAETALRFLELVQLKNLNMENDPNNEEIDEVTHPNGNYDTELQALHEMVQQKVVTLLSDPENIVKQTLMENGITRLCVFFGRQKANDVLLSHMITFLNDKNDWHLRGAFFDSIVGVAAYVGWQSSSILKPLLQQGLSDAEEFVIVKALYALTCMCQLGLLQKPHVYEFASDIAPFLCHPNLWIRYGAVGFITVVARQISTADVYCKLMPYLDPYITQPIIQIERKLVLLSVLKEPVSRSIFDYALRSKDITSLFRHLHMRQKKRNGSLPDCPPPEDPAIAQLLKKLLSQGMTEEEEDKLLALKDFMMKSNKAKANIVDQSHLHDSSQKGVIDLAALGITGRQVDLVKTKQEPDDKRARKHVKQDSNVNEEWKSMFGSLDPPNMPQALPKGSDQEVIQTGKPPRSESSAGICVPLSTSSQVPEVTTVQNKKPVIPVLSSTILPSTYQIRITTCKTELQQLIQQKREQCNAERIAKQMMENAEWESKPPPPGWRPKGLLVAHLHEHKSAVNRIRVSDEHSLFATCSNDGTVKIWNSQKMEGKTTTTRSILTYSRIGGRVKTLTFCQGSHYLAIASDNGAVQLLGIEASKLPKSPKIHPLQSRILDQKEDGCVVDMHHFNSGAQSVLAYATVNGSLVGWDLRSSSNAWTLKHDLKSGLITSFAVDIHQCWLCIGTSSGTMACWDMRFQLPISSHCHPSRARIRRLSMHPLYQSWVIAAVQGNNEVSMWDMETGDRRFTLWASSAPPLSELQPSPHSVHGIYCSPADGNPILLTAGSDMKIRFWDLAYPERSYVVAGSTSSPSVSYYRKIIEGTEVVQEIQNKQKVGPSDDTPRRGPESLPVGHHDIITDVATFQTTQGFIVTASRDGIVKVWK
UniProt O95399: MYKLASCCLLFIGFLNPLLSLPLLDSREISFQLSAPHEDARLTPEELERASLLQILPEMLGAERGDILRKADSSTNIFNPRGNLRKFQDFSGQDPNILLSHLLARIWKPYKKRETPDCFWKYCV
UniProt P56385: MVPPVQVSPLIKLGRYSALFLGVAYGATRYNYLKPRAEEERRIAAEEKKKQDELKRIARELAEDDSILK
UniProt Q02040: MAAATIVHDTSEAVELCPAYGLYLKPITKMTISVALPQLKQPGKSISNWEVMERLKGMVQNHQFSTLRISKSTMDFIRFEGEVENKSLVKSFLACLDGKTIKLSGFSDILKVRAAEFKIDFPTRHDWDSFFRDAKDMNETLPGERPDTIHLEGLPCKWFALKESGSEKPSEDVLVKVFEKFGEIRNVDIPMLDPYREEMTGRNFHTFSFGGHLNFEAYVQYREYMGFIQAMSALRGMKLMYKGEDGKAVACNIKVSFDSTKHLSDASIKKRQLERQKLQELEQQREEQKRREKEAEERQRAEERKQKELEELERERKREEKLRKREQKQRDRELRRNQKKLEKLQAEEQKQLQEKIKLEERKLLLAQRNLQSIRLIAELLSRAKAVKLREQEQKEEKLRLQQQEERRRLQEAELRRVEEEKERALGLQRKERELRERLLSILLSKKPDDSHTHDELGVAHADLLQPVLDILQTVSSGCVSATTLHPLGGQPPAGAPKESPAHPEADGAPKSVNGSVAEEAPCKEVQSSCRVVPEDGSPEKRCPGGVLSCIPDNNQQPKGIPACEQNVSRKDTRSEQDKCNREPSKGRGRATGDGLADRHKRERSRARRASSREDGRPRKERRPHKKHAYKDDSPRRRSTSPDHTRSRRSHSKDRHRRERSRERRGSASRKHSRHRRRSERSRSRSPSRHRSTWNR
UniProt Q9UMS4: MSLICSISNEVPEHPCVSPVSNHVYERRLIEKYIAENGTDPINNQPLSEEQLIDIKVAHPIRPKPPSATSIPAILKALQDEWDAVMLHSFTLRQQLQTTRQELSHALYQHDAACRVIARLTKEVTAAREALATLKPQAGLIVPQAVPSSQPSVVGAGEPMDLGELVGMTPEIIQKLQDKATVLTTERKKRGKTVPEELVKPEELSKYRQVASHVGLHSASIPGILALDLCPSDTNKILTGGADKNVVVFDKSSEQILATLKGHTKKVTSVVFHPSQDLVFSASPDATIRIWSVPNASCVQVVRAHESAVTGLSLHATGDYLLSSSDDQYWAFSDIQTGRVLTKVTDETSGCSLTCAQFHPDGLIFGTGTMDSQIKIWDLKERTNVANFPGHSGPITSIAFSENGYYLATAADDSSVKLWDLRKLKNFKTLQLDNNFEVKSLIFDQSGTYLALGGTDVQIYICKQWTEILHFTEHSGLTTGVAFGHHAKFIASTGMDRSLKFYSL
UniProt Q9BVT8: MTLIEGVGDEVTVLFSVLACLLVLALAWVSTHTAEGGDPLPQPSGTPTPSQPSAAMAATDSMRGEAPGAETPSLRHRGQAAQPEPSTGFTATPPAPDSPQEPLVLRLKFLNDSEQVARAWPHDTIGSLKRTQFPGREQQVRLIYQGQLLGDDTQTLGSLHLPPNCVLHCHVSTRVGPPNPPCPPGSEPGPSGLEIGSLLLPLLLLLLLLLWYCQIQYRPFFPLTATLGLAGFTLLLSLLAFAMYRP
UniProt Q6GMV3: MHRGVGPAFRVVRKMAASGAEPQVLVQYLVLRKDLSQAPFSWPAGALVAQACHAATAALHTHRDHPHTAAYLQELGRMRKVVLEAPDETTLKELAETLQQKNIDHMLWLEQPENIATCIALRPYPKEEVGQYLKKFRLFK
UniProt P98179: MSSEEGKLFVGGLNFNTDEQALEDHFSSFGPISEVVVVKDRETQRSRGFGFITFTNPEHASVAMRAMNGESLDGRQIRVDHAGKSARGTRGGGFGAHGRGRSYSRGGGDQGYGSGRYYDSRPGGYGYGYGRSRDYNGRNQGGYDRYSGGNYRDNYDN
UniProt Q9BRX2, whole entry: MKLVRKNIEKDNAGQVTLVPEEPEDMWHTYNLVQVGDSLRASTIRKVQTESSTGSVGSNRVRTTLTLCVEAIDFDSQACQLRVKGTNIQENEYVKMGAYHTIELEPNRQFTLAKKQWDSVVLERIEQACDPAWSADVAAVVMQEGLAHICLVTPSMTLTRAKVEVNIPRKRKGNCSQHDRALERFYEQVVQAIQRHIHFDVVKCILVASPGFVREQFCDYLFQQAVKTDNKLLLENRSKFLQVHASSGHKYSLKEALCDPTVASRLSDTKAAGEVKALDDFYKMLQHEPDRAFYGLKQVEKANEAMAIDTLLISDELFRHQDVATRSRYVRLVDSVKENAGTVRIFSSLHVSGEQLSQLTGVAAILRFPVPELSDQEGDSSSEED
UniProt O75150, whole entry: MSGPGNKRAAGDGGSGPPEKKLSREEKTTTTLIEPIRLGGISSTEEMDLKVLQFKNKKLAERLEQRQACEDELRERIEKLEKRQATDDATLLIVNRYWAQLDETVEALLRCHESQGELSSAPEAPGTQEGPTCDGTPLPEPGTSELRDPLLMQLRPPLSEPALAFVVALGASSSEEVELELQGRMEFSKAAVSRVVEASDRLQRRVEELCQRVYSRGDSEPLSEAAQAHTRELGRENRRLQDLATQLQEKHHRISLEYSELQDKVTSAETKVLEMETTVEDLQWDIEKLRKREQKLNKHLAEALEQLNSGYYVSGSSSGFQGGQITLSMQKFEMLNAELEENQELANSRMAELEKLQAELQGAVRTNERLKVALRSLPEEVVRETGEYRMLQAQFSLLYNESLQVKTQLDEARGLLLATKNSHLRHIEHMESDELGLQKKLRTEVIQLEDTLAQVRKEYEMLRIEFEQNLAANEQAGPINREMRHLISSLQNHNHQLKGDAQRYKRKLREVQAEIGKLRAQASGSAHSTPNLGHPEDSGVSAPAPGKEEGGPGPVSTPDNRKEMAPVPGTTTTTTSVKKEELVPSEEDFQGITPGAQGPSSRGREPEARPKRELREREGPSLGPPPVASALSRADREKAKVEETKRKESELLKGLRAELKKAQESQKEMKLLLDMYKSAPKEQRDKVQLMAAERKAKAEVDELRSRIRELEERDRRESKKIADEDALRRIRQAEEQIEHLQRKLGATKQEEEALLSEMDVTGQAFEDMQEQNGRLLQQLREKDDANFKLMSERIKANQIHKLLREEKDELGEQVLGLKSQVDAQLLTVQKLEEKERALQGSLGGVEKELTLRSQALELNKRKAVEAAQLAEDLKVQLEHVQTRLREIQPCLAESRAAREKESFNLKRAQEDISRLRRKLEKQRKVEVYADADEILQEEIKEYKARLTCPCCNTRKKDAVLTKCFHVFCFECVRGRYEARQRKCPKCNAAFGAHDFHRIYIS
UniProt Q7Z7E8: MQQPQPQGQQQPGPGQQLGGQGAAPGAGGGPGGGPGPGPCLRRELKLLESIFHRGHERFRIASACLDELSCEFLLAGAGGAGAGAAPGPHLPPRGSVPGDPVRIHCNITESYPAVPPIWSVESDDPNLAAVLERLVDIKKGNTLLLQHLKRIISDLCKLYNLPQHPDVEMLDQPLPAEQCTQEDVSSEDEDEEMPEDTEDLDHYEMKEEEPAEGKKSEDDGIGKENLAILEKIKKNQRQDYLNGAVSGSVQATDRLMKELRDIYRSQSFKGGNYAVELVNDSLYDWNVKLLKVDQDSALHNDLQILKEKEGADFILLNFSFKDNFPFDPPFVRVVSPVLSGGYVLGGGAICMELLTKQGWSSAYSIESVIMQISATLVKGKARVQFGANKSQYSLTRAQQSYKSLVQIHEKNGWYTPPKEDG
UniProt Q9NUW8, whole entry: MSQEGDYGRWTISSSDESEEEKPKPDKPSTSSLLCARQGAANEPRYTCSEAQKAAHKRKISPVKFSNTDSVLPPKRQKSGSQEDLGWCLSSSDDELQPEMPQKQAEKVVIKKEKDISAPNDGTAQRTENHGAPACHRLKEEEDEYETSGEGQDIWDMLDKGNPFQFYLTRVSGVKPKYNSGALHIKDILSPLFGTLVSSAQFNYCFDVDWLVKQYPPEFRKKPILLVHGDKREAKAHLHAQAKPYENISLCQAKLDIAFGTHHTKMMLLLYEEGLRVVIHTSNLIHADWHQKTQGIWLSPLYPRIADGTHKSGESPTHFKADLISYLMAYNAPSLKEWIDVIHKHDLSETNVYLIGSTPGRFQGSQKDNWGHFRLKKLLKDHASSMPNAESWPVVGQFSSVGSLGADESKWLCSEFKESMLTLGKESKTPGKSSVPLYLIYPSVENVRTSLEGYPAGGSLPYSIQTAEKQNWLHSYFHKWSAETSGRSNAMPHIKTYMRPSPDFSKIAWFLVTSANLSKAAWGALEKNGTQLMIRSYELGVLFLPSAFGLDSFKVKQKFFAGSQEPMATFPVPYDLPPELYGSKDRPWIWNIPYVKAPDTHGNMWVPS
UniProt P09234, whole entry: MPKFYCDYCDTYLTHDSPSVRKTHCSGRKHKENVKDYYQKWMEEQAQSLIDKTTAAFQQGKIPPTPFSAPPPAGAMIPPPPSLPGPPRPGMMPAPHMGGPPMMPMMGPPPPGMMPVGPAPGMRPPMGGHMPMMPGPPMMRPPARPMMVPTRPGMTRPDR

[1] = system: DAOY cell lysate, treatment time: 20 min, 4 °C
[2] = system: intact DAOY cells, treatment time: 90 min, 37 °C

RPS25 (UniProt P62851)
melting temperature shift [1]: 0.725 °C
melting temperature shift [2]: -0.93 °C

POMK (UniProt Q9H5K3)
melting temperature shift [1]: 1.44 °C
melting temperature shift [2]: -1.94 °C

GDE1 (UniProt Q9NZC3)
melting temperature shift [1]: 0.815 °C
melting temperature shift [2]: 3.6 °C

WEE1 (UniProt P30291)
melting temperature shift [1]: -0.76 °C

FMNL2 (UniProt Q96PY5)
melting temperature shift [2]: 0.489 °C

UniProt Q9BXL8
melting temperature shift [1]: -2.32 °C

GMPR2 (UniProt Q9P2T1)
melting temperature shift [1]: 0.331 °C

VMP1 (UniProt Q96GC9)
melting temperature shift [1]: -1.15 °C
melting temperature shift [2]: 0.628 °C

UniProt O95490
melting temperature shift [1]: 1.59 °C

PIK3R4 (UniProt Q99570)
melting temperature shift [1]: -0.692 °C
melting temperature shift [2]: 0.072 °C

UniProt Q96GD4
melting temperature shift [1]: -0.618 °C

COMT (UniProt P21964)
melting temperature shift [1]: 0.587 °C
melting temperature shift [2]: 0.959 °C

BCR (UniProt P11274)
melting temperature shift [1]: -3.31 °C

NOP14 (UniProt P78316)
melting temperature shift [1]: 0.701 °C

FHL2 (UniProt Q14192)
melting temperature shift [1]: -0.924 °C
melting temperature shift [2]: 0.451 °C

UniProt O95399
melting temperature shift [2]: -0.178 °C

VPS11 (UniProt Q9H270)
melting temperature shift [1]: 0.521 °C
melting temperature shift [2]: -0.26 °C

UniProt Q6NXT2
melting temperature shift [2]: 0.38 °C

UniProt P0C0S5
melting temperature shift [2]: -0.686 °C

UniProt Q53EQ6
melting temperature shift [2]: -0.553 °C

COMMD9 (UniProt Q9P000)
melting temperature shift [1]: 0.227 °C
melting temperature shift [2]: 2.01 °C

DEK (UniProt P35659)
melting temperature shift [1]: 0.417 °C
melting temperature shift [2]: -1.16 °C

SPCS3 (UniProt P61009)
melting temperature shift [1]: 1.07 °C
melting temperature shift [2]: -0.128 °C

UniProt Q5BKT4
melting temperature shift [2]: -0.655 °C

NDUFB4 (UniProt O95168)
melting temperature shift [1]: 1.76 °C
melting temperature shift [2]: -0.578 °C

UniProt Q2UY09
melting temperature shift [1]: 1.55 °C

FNDC3B (UniProt Q53EP0)
melting temperature shift [1]: 0.173 °C
melting temperature shift [2]: 0.0309 °C

UniProt Q8N6G5
melting temperature shift [2]: -1.59 °C

UniProt A6NIE6
melting temperature shift [2]: -1.06 °C

GGNBP2 (UniProt Q9H3C7)
melting temperature shift [1]: 0.504 °C

PUS3 (UniProt Q9BZE2)
melting temperature shift [1]: 0.529 °C
melting temperature shift [2]: -0.389 °C

PHKB (UniProt Q93100)
melting temperature shift [1]: -0.997 °C

TMEM214 (UniProt Q6NUQ4)
melting temperature shift [1]: 0.873 °C
melting temperature shift [2]: -0.846 °C

SRSF11 (UniProt Q05519)
melting temperature shift [1]: 0.153 °C
melting temperature shift [2]: -0.493 °C

KRAS (UniProt P01116)
melting temperature shift [1]: 1.94 °C
melting temperature shift [2]: -0.598 °C

UniProt Q15406
melting temperature shift [2]: -0.531 °C

DOCK9 (UniProt Q9BZ29)
melting temperature shift [1]: 1.07 °C
melting temperature shift [2]: -1.04 °C

HMCES (UniProt Q96FZ2)
melting temperature shift [1]: -1.03 °C
melting temperature shift [2]: -1.38 °C

SUMO1 (UniProt P63165)
melting temperature shift [1]: 2.33 °C
melting temperature shift [2]: 3.43 °C

UniProt P56385
melting temperature shift [1]: 0.362 °C
melting temperature shift [2]: -1.79 °C

DFNA5 (UniProt O60443)
melting temperature shift [1]: -1.09 °C
melting temperature shift [2]: -0.582 °C

UniProt O15479
melting temperature shift [1]: 0.926 °C
melting temperature shift [2]: -0.0436 °C

UniProt Q9H7B2
melting temperature shift [1]: 0.782 °C
melting temperature shift [2]: -0.423 °C

UniProt O60641
melting temperature shift [2]: 0.939 °C

MFN2 (UniProt O95140)
melting temperature shift [1]: 1.24 °C
melting temperature shift [2]: -0.0772 °C

PHF10 (UniProt Q8WUB8)
melting temperature shift [1]: -1.04 °C

EMC7 (UniProt Q9NPA0)
melting temperature shift [1]: 0.696 °C
melting temperature shift [2]: -1.21 °C

TXNL1 (UniProt O43396)
melting temperature shift [1]: -0.249 °C
melting temperature shift [2]: 0.0159 °C

CDR2 (UniProt Q01850)
melting temperature shift [1]: -1.72 °C

YARS (UniProt P54577)
melting temperature shift [1]: -0.795 °C
melting temperature shift [2]: -0.106 °C

UniProt Q02040
melting temperature shift [1]: -0.652 °C
melting temperature shift [2]: -2.1 °C

UniProt P38405
melting temperature shift [2]: -0.197 °C

BTN2A1 (UniProt Q7KYR7)
melting temperature shift [1]: 0.589 °C
melting temperature shift [2]: 0.361 °C

UniProt O95785
melting temperature shift [1]: 1.43 °C
melting temperature shift [2]: -1.43 °C

LIPA (UniProt P38571)
melting temperature shift [1]: 0.499 °C
melting temperature shift [2]: 0.871 °C

NOC4L (UniProt Q9BVI4)
melting temperature shift [1]: 0.421 °C

DNAJA3 (UniProt Q96EY1)
melting temperature shift [1]: 1.54 °C
melting temperature shift [2]: 0.419 °C

UniProt P13726
melting temperature shift [1]: -1.95 °C

UniProt P42167
melting temperature shift [1]: 1.44 °C
melting temperature shift [2]: 0.808 °C

FRA10AC1 (UniProt Q70Z53)
melting temperature shift [1]: -1.92 °C
melting temperature shift [2]: -0.494 °C

UniProt Q9Y3A3
melting temperature shift [1]: 0.146 °C
melting temperature shift [2]: 0.942 °C

LTA4H (UniProt P09960)
melting temperature shift [1]: -0.37 °C
melting temperature shift [2]: 0.00347 °C

ATRX (UniProt P46100)
melting temperature shift [1]: 0.899 °C
melting temperature shift [2]: 0.474 °C

OXA1L (UniProt Q15070)
melting temperature shift [1]: 0.417 °C
melting temperature shift [2]: 0.476 °C

PRPF19 (UniProt Q9UMS4)
melting temperature shift [1]: -0.274 °C
melting temperature shift [2]: 1.84 °C

SF3B6 (UniProt Q9Y3B4)
melting temperature shift [1]: 0.0469 °C
melting temperature shift [2]: 0.36 °C

TEAD1 (UniProt P28347)
melting temperature shift [2]: 1.96 °C

UniProt Q9BVT8
melting temperature shift [1]: 3.58 °C
melting temperature shift [2]: 0.269 °C

RPS9 (UniProt P46781)
melting temperature shift [1]: -0.484 °C
melting temperature shift [2]: -0.97 °C

SMNDC1 (UniProt O75940)
melting temperature shift [1]: -3.43 °C
melting temperature shift [2]: 0.869 °C

PTRH2 (UniProt Q9Y3E5)
melting temperature shift [1]: 1.66 °C
melting temperature shift [2]: -0.308 °C

UniProt Q05193
melting temperature shift [1]: 0.448 °C
melting temperature shift [2]: -0.258 °C

CLASP2 (UniProt O75122)
melting temperature shift [1]: -1.57 °C
melting temperature shift [2]: 0.263 °C

FAM3C (UniProt Q92520)
melting temperature shift [1]: 1.73 °C
melting temperature shift [2]: 0.823 °C

UniProt Q6GMV3
melting temperature shift [1]: 2.01 °C
melting temperature shift [2]: 0.924 °C

UniProt P23443
melting temperature shift [1]: -0.801 °C

TRMT2A (UniProt Q8IZ69)
melting temperature shift [1]: -1.44 °C
melting temperature shift [2]: -2.58 °C

SLC25A15 (UniProt Q9Y619)
melting temperature shift [1]: 2.6 °C
melting temperature shift [2]: -1.81 °C

EP300 (UniProt Q09472)
melting temperature shift [1]: -0.844 °C
melting temperature shift [2]: 2.19 °C

CIRBP (UniProt Q14011)
melting temperature shift [1]: 0.545 °C
melting temperature shift [2]: 0.223 °C

PUS7 (UniProt Q96PZ0)
melting temperature shift [1]: -0.396 °C
melting temperature shift [2]: 0.817 °C

ABCF2 (UniProt Q9UG63)
melting temperature shift [1]: -0.727 °C
melting temperature shift [2]: -1.9 °C

RBM3 (UniProt P98179)
melting temperature shift [1]: 0.593 °C

TKT (UniProt P29401)
melting temperature shift [1]: -0.34 °C
melting temperature shift [2]: -0.43 °C

PELO (UniProt Q9BRX2)
melting temperature shift [1]: 0.0433 °C
melting temperature shift [2]: -0.936 °C

VARS2 (UniProt Q5ST30)
melting temperature shift [1]: 3.49 °C
melting temperature shift [2]: -0.302 °C

DCTN3 (UniProt O75935)
melting temperature shift [1]: -0.825 °C
melting temperature shift [2]: 0.416 °C

SMC4 (UniProt Q9NTJ3)
melting temperature shift [1]: -0.534 °C
melting temperature shift [2]: -1.02 °C

RNF40 (UniProt O75150)
melting temperature shift [1]: -0.875 °C
melting temperature shift [2]: 0.0116 °C

DPYSL2 (UniProt Q16555)
melting temperature shift [1]: -0.739 °C
melting temperature shift [2]: -0.701 °C

UniProt P21127
melting temperature shift [1]: -0.284 °C
melting temperature shift [2]: 2.03 °C

UBE2Q1 (UniProt Q7Z7E8)
melting temperature shift [1]: -0.689 °C
melting temperature shift [2]: 0.075 °C

UniProt Q9NRH3
melting temperature shift [2]: 0.91 °C

ZMPSTE24 (UniProt O75844)
melting temperature shift [1]: 1.42 °C
melting temperature shift [2]: 0.694 °C

MRE11A (UniProt P49959)
melting temperature shift [1]: -0.838 °C
melting temperature shift [2]: 1.82 °C

EHD1 (UniProt Q9H4M9)
melting temperature shift [1]: -0.63 °C
melting temperature shift [2]: -1.65 °C

UniProt Q15051
melting temperature shift [1]: 0.0941 °C

UniProt Q13888
melting temperature shift [1]: 0.44 °C

VPS53 (UniProt Q5VIR6)
melting temperature shift [1]: -0.693 °C
melting temperature shift [2]: -0.848 °C

A0A0U1RRE5, A0A0U1RRE5
melting temperature shift [1]: 2.3 °C

TDP1 (UniProt Q9NUW8)
melting temperature shift [1]: -0.0819 °C
melting temperature shift [2]: -0.542 °C

SNRPC (UniProt P09234)
melting temperature shift [2]: -1.06 °C

NUS1 (UniProt Q96E22)
melting temperature shift [1]: 0.0355 °C
melting temperature shift [2]: -0.642 °C

UniProt Q9UNA1
melting temperature shift [1]: 1.91 °C

UniProt Q9NZW5
melting temperature shift [1]: 1.29 °C
melting temperature shift [2]: -0.422 °C

STAT1 (UniProt P42224)
melting temperature shift [1]: -0.69 °C
melting temperature shift [2]: -0.296 °C

TIPIN (UniProt Q9BVW5)
melting temperature shift [1]: -1.21 °C
melting temperature shift [2]: 0.802 °C

AAK1 (UniProt Q2M2I8)
melting temperature shift [1]: -0.176 °C
melting temperature shift [2]: -0.684 °C

NR3C1 (UniProt P04150)
melting temperature shift [1]: 0.00244 °C
melting temperature shift [2]: 0.153 °C

SFXN1 (UniProt Q9H9B4)
melting temperature shift [1]: 0.942 °C
melting temperature shift [2]: -1.26 °C

PDRG1 (UniProt Q9NUG6)
melting temperature shift [1]: -0.645 °C
melting temperature shift [2]: -0.85 °C

UniProt P24468
melting temperature shift [1]: -1.2 °C
melting temperature shift [2]: -1.66 °C

SYNCRIP (UniProt O60506)
melting temperature shift [1]: 0.269 °C
melting temperature shift [2]: -0.0347 °C

UMPS (UniProt P11172)
melting temperature shift [1]: -0.141 °C
melting temperature shift [2]: 0.0194 °C

Source: the supplement of paper PMC10060354, “Discovery of a small molecule ligand of FRS2 that inhibits invasion and tumor growth” (Cellular Oncology, 2022)
